In patent EP0802900B1, “ANTIARRHYTHMIC (S)-ENANTIOMERS OF METHANESULFONAMIDES” (priority 1995, dated 1996):

Tested on: methoxamine treated rabbits
Assay: Early after depolarizations (EAD) and polymorphic ventricular tachycardia (PVT) in methoxamine treated anesthetized rabbits
Type: in vivo, New Zealand White rabbits
Details: for Total accumulated dose of test compound when the maximum MAPD90 increase was measured: value in parentheses in MAPD90 column; for Total accumulated dose of test compound when the maximum QTc increase was measured: value in parentheses in QTc column
Procedure: The Formula I compounds were evaluated for their ability to produce early after depolarizations (EAD) and polymorphic ventricular tachycardia (PVT) in methoxamine treated rabbits. The method used was as follows:
Male New Zealand White rabbits (2.5 - 3.5 kg,) were pretreated with subcutaneous morphine sulfate (5 mg/kg) 30 minutes prior to anesthesia. Anesthesia was induced by infusion of α-chloralose (90 - 120 mg/kg) through a marginal ear vein over a period of 20 to 30 minutes. A tracheotomy was performed and the rabbit was respirated with room air (5 - 6 cc/kg) using a small animal ventilator (Columbus Instruments, Columbus, OH). Respiration rate, and tidal volume were adjusted, and supplemental oxygen administered to maintain arterial blood gases and pH within normal physiologic ranges. Catheters were placed in a jugular vein and carotid artery for administration of drugs, and measurement of arterial blood pressure, respectively. A 4 French monophasic action potential catheter was introduced through a jugular vein for monitoring of right ventricular monophasic action potential duration which was measured at 90% repolarization (MAPD90), A lead II ECG and arterial blood pressure were monitored throughout the experiments.
All records were obtained on a multichannel recorder (Gould ES 2000, Cleveland, OH) and experiments were continuously recorded on FM magnetic tape (TEAC 501, Montebello, CA) for subsequent playback and analysis.
Following experimental preparation, the rabbits were allowed to equilibrate for 10 minutes before baseline measurements of heart rate, aortic blood pressure, and QTc interval were made. During the equilibration period, monophasic action potentials were monitored and the catheter adjusted to produce action potentials with a stable amplitude. Following baseline measurements, the α1 agonist methoxamine was infused at a rate of 10 µg/kg/minute at an infusion volume of 12.0 ml/hr. After 15 minutes of methoxamine administration, intravenous infusion of saline (vehicle control) or a class III agent was begun. All agents were administered as a continuous infusion over a 1 hour period. Measurement of heart rate, aortic blood pressure. QTc interval (as defined below), and MAPD90 were repeated at several time points during drug administration to provide dose-response relationships. QTc and MAPD90 were also monitored to insure that maximal class III effects on these parameters had been achieved.
Total accumulated dose at the first incidence of PVT was also measured. Repolarization arrhythmias were characterized as early after depolarizations and extrasystoles during repolarization which produced extrasystoles in lead II ECG. PVT was considered to have occurred if 3 or more closely coupled repetitive extrasystoles with a twisting or torsioning QRS morphology were observed.
QT intervals were corrected for heart rate changes using the formula QTc = QT/square root R-R interval. EADs were compared between treatment groups at stable monophasic action potential amplitudes (APA) and are reported as a percent of the APA.
Examples of Formula I compounds evaluated in this manner are collected in Table II. A measure of Class III antiarrhythmic activity is indicated by an increase in QTc and MAPD90. The proarrhythmic potential is indicated by the incidence and magnitude of the EADs and by the ratio of the incidence of PVT to the total number of animals tested. The corresponding data for ibutilide, a compound of U.S. Patent 5,155,268, and the racemc forms Examples (R.S) (compounds of PCT WO 91/01299) are shown for comparison.

Compound	Total accumulated dose of test compound when the maximum MAPD90 increase was measured	Total accumulated dose of test compound when the maximum QTc increase was measured
CCCCCCCN(CC)CCCC(O)c1ccc(NS(C)(=O)=O)cc1 (centres unmarked) [Ibutilide, ibutilide]	10 mg/kg	10 mg/kg
(S)-(-)-N-[4-[4-[Ethyl(6-fluoroheptyl)amino]-1-hydroxybutyl]phenyl]methanesulfonamide, (E)-2-Butenedioate (2:1 salt) [Example 2]	1 mg/kg	0.25 mg/kg
CCN(CCCCCC(C)(C)F)CCC[C@H](O)c1ccc(NS(C)(=O)=O)cc1 [Example 3, (S)-(-)-N-[4-[4-[Ethyl(6-fluoro-6-methylheptyl)amino]-1-hydroxybutyl]phenyl]-methanesulfonamide]	3 mg/kg	1 mg/kg
(S)-(-)-N-[4-[4-[Ethyl(7-fluoroheptyl)amino]-1-hydroxybutyl]phenyl] methanesulfonamide, (E)-2-Butenedioate (2:1 salt) [Example 1]	1 mg/kg	1 mg/kg
CCN(CCCCCC(C)F)CCCC(O)c1ccc(NS(C)(=O)=O)cc1 (racemic) [(R,S) 2]	0.25 mg/kg	0.25 mg/kg
CCN(CCCCCCCF)CCCC(O)c1ccc(NS(C)(=O)=O)cc1 (racemic) [(R,S) 1]	1 mg/kg	0.5 mg/kg
CCN(CCCCCC(C)(C)F)CCCC(O)c1ccc(NS(C)(=O)=O)cc1 (racemic) [(R,S) 3]	1 mg/kg	0.25 mg/kg
